Several values for one entry are separate records, joined by “and”; a condition that tells them apart may be missing. Equal entries are not always repeated. The name of at least one read-out is uncertain.
System: leukemia P388
Assay: NCI studies against leukemia P388 (Appendix 1, MDA and T/C)
Format: in vivo, murine
Text: On the other hand, murine transplantable leukemias are a good predictor of anti-leukemia activity in human beings (Kenis "Dose schedules and mode of administration of chemotherapeutic agents in man". Recent Results Cancer Res. 21, 54-61 (1969). Only those tests which use the survival times as an activity parameter are valid as predictors of antileukemia activity in human beings (for instance, leukemia p388 y L-1210), whilst "in vitro" tests (HeLa cells and other) are inappropriate (Llombart-Rodriguez, 1983). NCI data generated in the last years confirm the value of above assertions to compounds of general formula [drawing 1] as described in U.S. Pat. No. 4,204,063.
Experimental results from NCI studies against leukemia P388 are shown in an appendix (Appendix 1). In order to simplify the presentation of results we have extracted from these the minor active dose (MDA) against leukemia P388--for each compound. MDA is defined as the minor dose of the drug that reaches the minimal activity criteria of the NCI. For leukemia P388 this criteria on the basis of survival time is a minimal increase in survival of treated animals over a control resulting in a T/C≥120. In the following table the MDA for 14 examples are presented. In cases where none of the tested doses reached the MDA, the MDA is indicated as "NONE". The column "cytotoxic activity" has been extracted from U.S. Pat. No. 4,204,063. […]

In the case of CN(C)CCN1C(=O)c2cccc3cc(N)cc(c23)C1=O [Example 9, 1H-Benz[de]isoquinoline-1,3(2H)-dione, 5-amino-2-[2-(dimethylamino)ethyl]], the T/C % (dose 8,00 mg/kg) is reported as 176% and 144% and the T/C % (dose 16,00 mg/kg) is reported as 132% and 177%.

Source: patent US5183821A, “Method for treating leukemias using N-(2-dimethylaminoethyl)-3-amino-1,8-naphthalimide for treating leukemias and solid tumors” (priority 1991, dated 1993)
